Experiment [1] relates to TPC1 cells. The experiment in a line: RNA-seq of TPC1 cells after RET inhibitor treatment. The format is cell-based, human. How it is done: For RNA-seq analysis total RNA was extracted using the RNeasy Mini Kit (Qiagen) after treatment of TPC-1 cells with either DMSO, AST487 or Cabozantinib for 72 hours. Purified polyA mRNA was subsequently fragmented, and first and second strand cDNA synthesis performed using standard Illumina mRNA TruSeq library preparation protocols. Double stranded cDNA was subsequently processed for TruSeq dual-index Illumina library generation. For sequencing, pooled multiplexed libraries were run on a HiSeq 2500 machine on RAPID mode. Approximately 10 million 76 bp single-end reads were retrieved per replicate condition. Resulting RNA-Seq data was analyzed by removing adaptor sequences using Trimmomatic, aligning sequencing data to GRCh37.75(hg19) with STAR, and genome wide transcript counting using HTSeq to generate a RPKM matrix of transcript counts. This RPKM matrix was further log (log 2) transformed and normalized per gene to obtain the Z-score. Differential gene expression was analyzed by looking at fold changes between experimental conditions.

The subject of experiment [2] is TPC1 cells. The experiment in a line: Flow cytometry of ESK1 (TCR mimic antibody) binding to TPC1 cells. The format is cell-based, human. The following applies: TPC1, 72 hours treatment. How it is done: If adherent cells, they were seeded one day before treatment.

For `CCN1CCN(Cc2ccc(NC(=O)Nc3ccc(Oc4cc(NC)ncn4)cc3)cc2C(F)(F)F)CC1` [AST487], the “newly identified HLA ligands with at least a 2-fold increase in mRNA levels” value in the experiment on TPC1 cells [1] (TPC1) was “four”. In the experiment on TPC1 cells [1] (TPC1, 72 hours), the “genes upregulated at least two-fold” value is 32. Also, in the experiment on TPC1 cells [2], the “ESK binding after RET inhibitor treatment” value is recorded as “Increased binding of ESK”.

For the origin of these results see patent US20210379046A1, “Methods of Treating Diseases Using Kinase Modulators” (Memorial Sloan Kettering Cancer Center, priority 2018, published 2021).
